From the supplement of paper PMC12819154, “High-throughput peptide-centric local stability assay extends protein–ligand identification to membrane proteins, tissues and bacteria” (Nature Structural & Molecular Biology, 2025) come the findings set out here.

Chains of the proteins cited; added tags and fusions are not shown. Lines headed by an entry give the natural chain unless they say otherwise; changes in a name come on top.
UniProt Q15369, whole entry: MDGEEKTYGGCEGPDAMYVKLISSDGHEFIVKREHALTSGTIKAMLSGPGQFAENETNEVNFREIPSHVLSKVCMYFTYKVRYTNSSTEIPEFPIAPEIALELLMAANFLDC
UniProt Q3KRA6: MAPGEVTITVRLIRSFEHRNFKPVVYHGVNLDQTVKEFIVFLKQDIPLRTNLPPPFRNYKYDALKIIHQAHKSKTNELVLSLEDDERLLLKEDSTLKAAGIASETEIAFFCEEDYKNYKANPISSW
UniProt Q16698: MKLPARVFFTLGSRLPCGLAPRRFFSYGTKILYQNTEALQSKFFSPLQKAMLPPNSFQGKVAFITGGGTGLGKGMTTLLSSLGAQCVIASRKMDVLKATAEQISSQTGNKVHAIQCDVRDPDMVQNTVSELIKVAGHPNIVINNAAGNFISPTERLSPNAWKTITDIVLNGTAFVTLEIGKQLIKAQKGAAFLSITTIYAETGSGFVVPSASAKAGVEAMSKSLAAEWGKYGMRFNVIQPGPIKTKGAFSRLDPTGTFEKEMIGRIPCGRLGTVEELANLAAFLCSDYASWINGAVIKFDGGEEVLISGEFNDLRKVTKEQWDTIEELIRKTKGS
UniProt Q15910, whole entry, looked up: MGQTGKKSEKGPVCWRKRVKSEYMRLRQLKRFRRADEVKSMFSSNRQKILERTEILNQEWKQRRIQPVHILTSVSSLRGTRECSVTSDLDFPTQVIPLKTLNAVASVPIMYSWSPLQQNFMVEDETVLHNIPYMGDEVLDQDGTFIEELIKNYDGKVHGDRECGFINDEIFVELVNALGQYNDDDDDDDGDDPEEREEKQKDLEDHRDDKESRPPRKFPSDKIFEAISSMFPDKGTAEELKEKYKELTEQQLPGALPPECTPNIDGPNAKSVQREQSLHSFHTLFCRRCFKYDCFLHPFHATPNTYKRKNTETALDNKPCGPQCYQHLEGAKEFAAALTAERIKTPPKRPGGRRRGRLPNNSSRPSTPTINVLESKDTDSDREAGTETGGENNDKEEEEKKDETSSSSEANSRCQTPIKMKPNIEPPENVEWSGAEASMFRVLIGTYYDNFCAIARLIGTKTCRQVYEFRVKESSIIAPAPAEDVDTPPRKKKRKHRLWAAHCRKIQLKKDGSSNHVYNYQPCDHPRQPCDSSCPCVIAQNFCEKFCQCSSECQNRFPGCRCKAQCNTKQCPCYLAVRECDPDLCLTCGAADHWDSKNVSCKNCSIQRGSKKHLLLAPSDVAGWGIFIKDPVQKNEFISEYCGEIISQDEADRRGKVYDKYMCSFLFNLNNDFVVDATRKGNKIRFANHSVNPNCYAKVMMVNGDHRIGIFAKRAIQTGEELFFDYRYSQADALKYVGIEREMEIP
UniProt Q15291, whole entry: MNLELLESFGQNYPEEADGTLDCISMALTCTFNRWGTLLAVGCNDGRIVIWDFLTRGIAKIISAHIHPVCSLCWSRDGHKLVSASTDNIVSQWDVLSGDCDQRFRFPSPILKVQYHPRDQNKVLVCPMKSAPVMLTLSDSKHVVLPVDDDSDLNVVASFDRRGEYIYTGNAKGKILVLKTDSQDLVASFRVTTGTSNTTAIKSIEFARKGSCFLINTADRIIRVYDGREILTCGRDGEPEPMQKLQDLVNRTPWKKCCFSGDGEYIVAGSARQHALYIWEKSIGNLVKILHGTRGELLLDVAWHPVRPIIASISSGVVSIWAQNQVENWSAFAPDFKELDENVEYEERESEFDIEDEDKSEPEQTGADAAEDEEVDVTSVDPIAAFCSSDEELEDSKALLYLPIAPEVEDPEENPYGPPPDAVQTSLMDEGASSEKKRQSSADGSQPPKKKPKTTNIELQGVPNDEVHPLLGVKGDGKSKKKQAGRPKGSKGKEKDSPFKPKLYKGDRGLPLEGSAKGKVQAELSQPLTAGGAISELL
UniProt Q16891: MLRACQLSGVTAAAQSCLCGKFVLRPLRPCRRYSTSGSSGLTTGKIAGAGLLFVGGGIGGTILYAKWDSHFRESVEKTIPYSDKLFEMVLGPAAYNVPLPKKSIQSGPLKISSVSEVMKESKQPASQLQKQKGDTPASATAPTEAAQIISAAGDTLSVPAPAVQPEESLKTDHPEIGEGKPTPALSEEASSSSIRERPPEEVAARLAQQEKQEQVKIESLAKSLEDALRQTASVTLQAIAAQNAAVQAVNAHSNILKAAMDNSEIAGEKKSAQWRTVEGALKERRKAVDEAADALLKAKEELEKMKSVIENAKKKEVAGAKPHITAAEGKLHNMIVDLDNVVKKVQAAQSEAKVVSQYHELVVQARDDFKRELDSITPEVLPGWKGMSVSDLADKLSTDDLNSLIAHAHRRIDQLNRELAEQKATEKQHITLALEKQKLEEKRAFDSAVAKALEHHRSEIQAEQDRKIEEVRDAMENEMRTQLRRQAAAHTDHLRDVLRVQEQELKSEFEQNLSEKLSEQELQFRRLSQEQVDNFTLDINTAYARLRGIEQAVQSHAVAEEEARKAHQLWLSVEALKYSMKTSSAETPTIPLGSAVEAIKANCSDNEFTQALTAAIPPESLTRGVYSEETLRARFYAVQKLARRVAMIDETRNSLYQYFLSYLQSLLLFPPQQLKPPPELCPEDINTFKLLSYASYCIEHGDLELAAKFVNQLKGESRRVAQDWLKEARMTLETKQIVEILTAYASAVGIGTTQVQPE
UniProt Q15464: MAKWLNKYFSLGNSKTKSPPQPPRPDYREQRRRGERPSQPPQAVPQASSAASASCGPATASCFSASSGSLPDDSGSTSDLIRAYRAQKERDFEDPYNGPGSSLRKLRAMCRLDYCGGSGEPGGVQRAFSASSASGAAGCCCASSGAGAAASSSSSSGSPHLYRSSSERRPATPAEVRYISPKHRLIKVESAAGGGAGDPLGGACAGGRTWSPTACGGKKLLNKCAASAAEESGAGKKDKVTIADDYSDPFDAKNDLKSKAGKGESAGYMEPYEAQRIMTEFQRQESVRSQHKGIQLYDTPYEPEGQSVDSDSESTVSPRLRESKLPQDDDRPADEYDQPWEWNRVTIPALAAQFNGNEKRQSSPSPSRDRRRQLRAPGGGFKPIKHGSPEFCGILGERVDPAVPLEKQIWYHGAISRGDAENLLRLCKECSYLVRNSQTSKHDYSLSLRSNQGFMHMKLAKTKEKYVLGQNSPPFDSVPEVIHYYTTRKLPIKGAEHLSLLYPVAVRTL
UniProt Q15750: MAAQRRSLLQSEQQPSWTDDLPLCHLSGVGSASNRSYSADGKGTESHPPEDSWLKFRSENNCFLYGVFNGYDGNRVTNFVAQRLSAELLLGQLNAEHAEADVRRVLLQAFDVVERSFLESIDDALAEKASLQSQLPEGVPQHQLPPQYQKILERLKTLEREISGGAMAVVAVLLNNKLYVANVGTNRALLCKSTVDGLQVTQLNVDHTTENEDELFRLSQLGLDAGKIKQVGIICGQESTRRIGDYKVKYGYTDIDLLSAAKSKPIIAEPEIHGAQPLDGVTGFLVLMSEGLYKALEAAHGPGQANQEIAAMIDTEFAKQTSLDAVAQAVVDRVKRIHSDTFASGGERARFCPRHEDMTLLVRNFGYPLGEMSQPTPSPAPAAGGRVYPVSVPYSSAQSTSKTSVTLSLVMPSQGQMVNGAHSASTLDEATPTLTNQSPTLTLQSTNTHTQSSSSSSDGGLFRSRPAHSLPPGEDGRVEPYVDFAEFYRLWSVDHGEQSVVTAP
UniProt Q155Q3: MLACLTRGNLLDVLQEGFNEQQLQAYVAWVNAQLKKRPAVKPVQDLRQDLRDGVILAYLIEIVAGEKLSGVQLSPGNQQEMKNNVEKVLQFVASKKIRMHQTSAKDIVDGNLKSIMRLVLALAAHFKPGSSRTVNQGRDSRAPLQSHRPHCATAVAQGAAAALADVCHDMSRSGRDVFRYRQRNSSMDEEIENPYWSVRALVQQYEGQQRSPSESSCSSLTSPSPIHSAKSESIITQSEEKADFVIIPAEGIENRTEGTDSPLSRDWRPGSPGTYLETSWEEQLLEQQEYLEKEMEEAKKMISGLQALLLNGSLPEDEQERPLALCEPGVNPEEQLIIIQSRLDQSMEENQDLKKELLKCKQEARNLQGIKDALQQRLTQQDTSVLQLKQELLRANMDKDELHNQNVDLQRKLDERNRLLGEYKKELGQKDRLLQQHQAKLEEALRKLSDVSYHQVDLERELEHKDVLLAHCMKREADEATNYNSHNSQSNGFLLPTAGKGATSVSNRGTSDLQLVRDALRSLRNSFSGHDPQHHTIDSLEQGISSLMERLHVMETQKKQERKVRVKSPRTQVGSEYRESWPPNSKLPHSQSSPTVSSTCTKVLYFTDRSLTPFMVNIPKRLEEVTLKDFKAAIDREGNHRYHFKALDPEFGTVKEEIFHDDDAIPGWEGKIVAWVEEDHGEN
UniProt Q16204: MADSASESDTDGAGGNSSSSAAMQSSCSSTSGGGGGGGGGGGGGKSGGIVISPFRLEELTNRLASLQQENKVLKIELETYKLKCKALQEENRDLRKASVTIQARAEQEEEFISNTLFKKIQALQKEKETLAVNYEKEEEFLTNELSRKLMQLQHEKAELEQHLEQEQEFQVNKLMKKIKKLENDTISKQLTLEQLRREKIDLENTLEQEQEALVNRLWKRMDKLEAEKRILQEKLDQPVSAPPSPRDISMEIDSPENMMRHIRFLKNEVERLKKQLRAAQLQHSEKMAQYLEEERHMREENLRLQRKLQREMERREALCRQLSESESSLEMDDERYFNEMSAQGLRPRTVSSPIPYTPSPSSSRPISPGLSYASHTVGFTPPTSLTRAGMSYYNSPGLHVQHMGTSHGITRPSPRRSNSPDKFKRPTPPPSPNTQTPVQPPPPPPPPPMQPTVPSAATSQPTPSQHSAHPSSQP
UniProt Q15121, whole entry: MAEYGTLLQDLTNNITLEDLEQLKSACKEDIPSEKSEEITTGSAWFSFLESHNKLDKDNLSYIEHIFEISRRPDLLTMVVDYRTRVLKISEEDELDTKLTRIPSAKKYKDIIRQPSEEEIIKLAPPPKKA
UniProt Q3MII6: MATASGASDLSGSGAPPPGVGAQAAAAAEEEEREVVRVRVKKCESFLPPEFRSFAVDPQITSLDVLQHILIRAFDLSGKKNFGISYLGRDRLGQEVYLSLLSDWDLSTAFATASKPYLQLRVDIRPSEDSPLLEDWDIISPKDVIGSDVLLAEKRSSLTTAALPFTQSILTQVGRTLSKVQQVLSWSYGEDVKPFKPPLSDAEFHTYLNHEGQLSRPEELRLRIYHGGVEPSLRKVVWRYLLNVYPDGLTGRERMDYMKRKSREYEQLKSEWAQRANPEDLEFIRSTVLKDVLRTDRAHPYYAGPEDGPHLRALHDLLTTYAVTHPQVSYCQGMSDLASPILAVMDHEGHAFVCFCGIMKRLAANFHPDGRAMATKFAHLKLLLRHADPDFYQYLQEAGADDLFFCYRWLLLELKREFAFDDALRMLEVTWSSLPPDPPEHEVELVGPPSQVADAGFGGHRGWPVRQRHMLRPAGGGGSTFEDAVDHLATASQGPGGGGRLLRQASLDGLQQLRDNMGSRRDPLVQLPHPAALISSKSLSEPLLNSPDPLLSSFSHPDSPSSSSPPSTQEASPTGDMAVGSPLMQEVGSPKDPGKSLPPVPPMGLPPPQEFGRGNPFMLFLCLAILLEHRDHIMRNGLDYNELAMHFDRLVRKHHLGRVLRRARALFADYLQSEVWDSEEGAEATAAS
UniProt Q15796, whole entry: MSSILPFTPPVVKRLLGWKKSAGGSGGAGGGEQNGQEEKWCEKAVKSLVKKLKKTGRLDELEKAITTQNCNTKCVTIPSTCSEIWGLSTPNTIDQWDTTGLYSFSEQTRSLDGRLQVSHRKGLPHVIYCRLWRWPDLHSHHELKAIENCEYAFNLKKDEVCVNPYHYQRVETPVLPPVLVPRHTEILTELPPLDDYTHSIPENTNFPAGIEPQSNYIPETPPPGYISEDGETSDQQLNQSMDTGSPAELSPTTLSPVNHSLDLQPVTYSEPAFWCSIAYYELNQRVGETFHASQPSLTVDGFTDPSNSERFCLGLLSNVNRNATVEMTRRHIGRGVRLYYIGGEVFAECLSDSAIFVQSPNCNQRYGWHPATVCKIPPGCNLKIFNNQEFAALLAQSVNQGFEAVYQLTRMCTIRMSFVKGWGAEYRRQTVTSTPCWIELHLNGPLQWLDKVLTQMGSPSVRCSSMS
UniProt Q16877: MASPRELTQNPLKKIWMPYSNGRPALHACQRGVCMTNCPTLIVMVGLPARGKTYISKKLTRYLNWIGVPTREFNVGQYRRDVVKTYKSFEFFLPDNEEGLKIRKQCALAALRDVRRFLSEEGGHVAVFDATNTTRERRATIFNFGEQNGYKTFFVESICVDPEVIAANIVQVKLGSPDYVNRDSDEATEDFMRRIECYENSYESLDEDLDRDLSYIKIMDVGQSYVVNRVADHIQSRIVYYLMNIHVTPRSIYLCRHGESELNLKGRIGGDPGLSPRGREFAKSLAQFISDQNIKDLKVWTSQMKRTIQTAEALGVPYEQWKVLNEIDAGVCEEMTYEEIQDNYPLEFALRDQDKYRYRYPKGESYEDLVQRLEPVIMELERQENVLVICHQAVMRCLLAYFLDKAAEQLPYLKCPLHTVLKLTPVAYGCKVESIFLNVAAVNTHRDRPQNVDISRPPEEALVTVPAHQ

Compound in this assay: Cc1nc(Nc2ncc(C(=O)Nc3c(C)cccc3Cl)s2)cc(N2CCN(CCO)CC2)n1 [dasatinib]
The assay can be described thus: log2 fold change of tryptic peptide abundance, ligand vs vehicle (limited proteolysis) (log2 ratio); higher = more trypsin-susceptible (destabilized). To be noted: ligand concentration: 5 uM; sample: K562 cleared lysate.

Some of the results follow. Most entries show no effect beyond the scatter of the controls.

In the case of “TRIP4 (peptide sequence: KILEEENSLAEYHSR, peptide start residue: 334) (UniProt Q15650)”, the log2 fold change came to 0.228.

In the case of “UniProt Q16829 (peptide sequence: LRDDGCQAYYLQGGFNK, peptide start residue: 161)”, the log2 fold change was -0.0904. For “UniProt Q2M1P5 (peptide sequence: MKEELIGELVR, peptide start residue: 719)” the value was -0.0349; for “UniProt Q32M78 (peptide sequence: KHMKTPTEEK, peptide start residue: 240)”, 0.0753. Regarding “MYLK (peptide sequence: SASKEELK, peptide start residue: 517) (UniProt Q15746)”, the log2 fold change is -0.0736. With “STIL (peptide sequence: NITNEVLQTK, peptide start residue: 1197) (UniProt Q15468)”, the log2 fold change was -0.363. On to “UniProt Q15369 (peptide sequence: EIPSHVLSK, peptide start residue: 64)”, for which the log2 fold change is -0.0663.

Consider “C2orf76 (peptide sequence: EFIVFLK, peptide start residue: 37) (UniProt Q3KRA6)”, for which the log2 fold change is 0.436.

In the case of “DECR1 (peptide sequence: LDPTGTFEK, peptide start residue: 252) (UniProt Q16698)”, the log2 fold change was determined as 0.105. Regarding “CDK10 (peptide sequence: AAPATSEGQSK, peptide start residue: 346) (UniProt Q15131)”, the log2 fold change came to 0.255.

As for “QPRT (peptide sequence: YGLLVGGAASHR, peptide start residue: 150) (UniProt Q15274)”, the log2 fold change is -0.0984.

In the case of “VMAC (peptide sequence: LALHDQQLR, peptide start residue: 44) (UniProt Q2NL98)”, the log2 fold change stood at 0.228.

With “VAMP3 (peptide sequence: STGPTAATGSNRR, peptide start residue: 2) (UniProt Q15836)”, the log2 fold change was 0.327. For “ERCC6L (peptide sequence: DIFPNEK, peptide start residue: 49) (UniProt Q2NKX8)”, the log2 fold change was -0.076. With “UniProt Q2TAC6 (peptide sequence: KREESLEAK, peptide start residue: 879)” the figure was -0.281; with “UniProt Q15928 (peptide sequence: CGHDNLQLR, peptide start residue: 30)”, -0.303; with “RHEB (peptide sequence: VQIPIMLVGNKK, peptide start residue: 110) (UniProt Q15382)”, -0.111.

In the case of “RCN1 (peptide sequence: DYDRDKDDK, peptide start residue: 126) (UniProt Q15293)”, the log2 fold change was -0.816. Turning to “NDUFA5 (peptide sequence: KTTGLVGLAVCNTPHER, peptide start residue: 7) (UniProt Q16718)”, the log2 fold change is 0.381. As to “UniProt Q2QGD7 (peptide sequence: GGQHGGGPGPLR, peptide start residue: 14)”, the log2 fold change is -1.02.

On to “ECM1 (peptide sequence: QLRPEHFQEVGYAAPPSPPLSR, peptide start residue: 32) (UniProt Q16610)”, for which the log2 fold change was 0.223. For “UniProt Q3LXA3 (peptide sequence: SPGADLLQVLTK, peptide start residue: 511)” the value was -0.305; for “EZH2 (peptide sequence: KSEKGPVCWR, peptide start residue: 7) (UniProt Q15910)”, -0.766; for “MAP7D1 (peptide sequence: RKPNAGGSPAPVR, peptide start residue: 392) (UniProt Q3KQU3)”, -0.363. As to “TAF5 (peptide sequence: SKKQDPNAPPQNR, peptide start residue: 414) (UniProt Q15542)”, the log2 fold change was determined as 0.328. With “RBBP7 (peptide sequence: RLNVWDLSK, peptide start residue: 340) (UniProt Q16576)”, the log2 fold change was -0.403. With “PSMD6 (peptide sequence: VNEIVETNRPDSK, peptide start residue: 350) (UniProt Q15008)” the figure was -0.995; with “RBBP5 (peptide sequence: TDSQDLVASFR, peptide start residue: 180) (UniProt Q15291)”, -0.451; with “IMMT (peptide sequence: EVAGAKPHITAAEGK, peptide start residue: 316) (UniProt Q16891)”, 0.339. For “ZNHIT3 (peptide sequence: QLMVNLDQGEDKAK, peptide start residue: 112) (UniProt Q15649)” the value was -0.33; for “PCM1 (peptide sequence: NQLDTNGR, peptide start residue: 1242) (UniProt Q15154)”, 0.195.

For the target “SKIV2L (peptide sequence: GYYAAVEAK, peptide start residue: 517) (UniProt Q15477)”, the log2 fold change is -0.498. “SHB (peptide sequence: TWSPTACGGKK, peptide start residue: 209) (UniProt Q15464)”: the log2 fold change is -0.517. Consider “ARL6IP1 (peptide sequence: FHEICSNLVK, peptide start residue: 105) (UniProt Q15041)”, for which the log2 fold change was -0.129. With “UniProt Q15149 (peptide sequence: LSVYQAMK, peptide start residue: 4084)” the figure was 0.706; with “UniProt Q15750 (peptide sequence: QTSLDAVAQAVVDRVK, peptide start residue: 320)”, 0.129; with “SPA17 (peptide sequence: TNSLQNEEKEENK, peptide start residue: 139) (UniProt Q15506)”, -0.0744. Regarding “AP5B1 (peptide sequence: VGAGLGGLLTDK, peptide start residue: 203) (UniProt Q2VPB7)”, the log2 fold change was -0.299. With “UniProt Q155Q3 (peptide sequence: GTSDLQLVR, peptide start residue: 509)” the figure was -0.225; with “SART3 (peptide sequence: YKPYEEALLQAEAPR, peptide start residue: 295) (UniProt Q15020)”, -0.471.

On to “TAF12 (peptide sequence: IPGTPGAGGR, peptide start residue: 40) (UniProt Q16514)”, for which the log2 fold change was -0.203. On to “PDCD2 (peptide sequence: VCGCLGPKTCSR, peptide start residue: 137) (UniProt Q16342)”, for which the log2 fold change was -0.244. Take “CCDC6 (peptide sequence: KASVTIQAR, peptide start residue: 96) (UniProt Q16204)”: the log2 fold change was -0.0983. With “C2orf68 (peptide sequence: HTPAPTRPR, peptide start residue: 55) (UniProt Q2NKX9)” the figure was 0.379. For “NONO (peptide sequence: AGEVFIHK, peptide start residue: 100) (UniProt Q15233)” the value was -0.14; for “NAB2 (peptide sequence: SSVKVEAEASRQ, peptide start residue: 514) (UniProt Q15742)”, 0.248; for “UniProt Q16181 (peptide sequence: KNLEAQHK, peptide start residue: 388)”, -0.145.

Consider “MORF4L2 (peptide sequence: QKTPGNGDGGSTSEAPQPPRK, peptide start residue: 80) (UniProt Q15014)”, for which the log2 fold change is -0.712. As to “PEA15 (peptide sequence: RPDLLTMVVDYR, peptide start residue: 72) (UniProt Q15121)”, the log2 fold change stood at 0.116.

Take “TOMM34 (peptide sequence: AACHLKDGNCR, peptide start residue: 58) (UniProt Q15785)”: the log2 fold change was 0.278. On to “TBC1D25 (peptide sequence: RDPLVQLPHPAALISSK, peptide start residue: 521) (UniProt Q3MII6)”, for which the log2 fold change was -0.224. For the target “JMJD1C (peptide sequence: SSPSPEVVKPK, peptide start residue: 638) (UniProt Q15652)”, the log2 fold change is -0.148. As for “TRMT5 (peptide sequence: HLIGQVMIDKNPGITSAVNK, peptide start residue: 220) (UniProt Q32P41)”, the log2 fold change stood at 0.172. Regarding “SMAD2 (peptide sequence: WPDLHSHHELK, peptide start residue: 134) (UniProt Q15796)”, the log2 fold change is -0.14. “TRIP13 (peptide sequence: HSNVVILTTSNITEKIDVAFVDR, peptide start residue: 290) (UniProt Q15645)”: the log2 fold change was -0.582.

Take “UniProt Q2PPJ7 (peptide sequence: SHPDVTEPMR, peptide start residue: 701)”: the log2 fold change is 0.23.

On to “MED1 (peptide sequence: ILHGSVGYLTPR, peptide start residue: 203) (UniProt Q15648)”, for which the log2 fold change was -0.533. Regarding “UniProt Q15019 (peptide sequence: YLHDESGLNR, peptide start residue: 129)”, the log2 fold change is -0.304.

As to “PPP2R5E (peptide sequence: LEDLELKR, peptide start residue: 450) (UniProt Q16537)”, the log2 fold change stood at 0.464. On to “UniProt Q15018 (peptide sequence: VQAVCADVEKSER, peptide start residue: 220)”, for which the log2 fold change is 0.22.

As for “ZNF77 (peptide sequence: AYSFSSSLR, peptide start residue: 416) (UniProt Q15935)”, the log2 fold change is 0.141. With “SNAPC1 (peptide sequence: AFSVVIQASK, peptide start residue: 269) (UniProt Q16533)” the figure was -0.121; with “PFKFB4 (peptide sequence: DSDEATEDFMR, peptide start residue: 183) (UniProt Q16877)”, 0.126.
